Assay results reported in article PMC4695042.
No constants are given. Whether binding was seen depends on the method and setting. In cells and extracts the contact can be indirect. Some entries that bind do so weakly or less than the wild type.

Sequences of proteins named here, by UniProt entry; tags and fusion partners are left off.
UniProt Q05086: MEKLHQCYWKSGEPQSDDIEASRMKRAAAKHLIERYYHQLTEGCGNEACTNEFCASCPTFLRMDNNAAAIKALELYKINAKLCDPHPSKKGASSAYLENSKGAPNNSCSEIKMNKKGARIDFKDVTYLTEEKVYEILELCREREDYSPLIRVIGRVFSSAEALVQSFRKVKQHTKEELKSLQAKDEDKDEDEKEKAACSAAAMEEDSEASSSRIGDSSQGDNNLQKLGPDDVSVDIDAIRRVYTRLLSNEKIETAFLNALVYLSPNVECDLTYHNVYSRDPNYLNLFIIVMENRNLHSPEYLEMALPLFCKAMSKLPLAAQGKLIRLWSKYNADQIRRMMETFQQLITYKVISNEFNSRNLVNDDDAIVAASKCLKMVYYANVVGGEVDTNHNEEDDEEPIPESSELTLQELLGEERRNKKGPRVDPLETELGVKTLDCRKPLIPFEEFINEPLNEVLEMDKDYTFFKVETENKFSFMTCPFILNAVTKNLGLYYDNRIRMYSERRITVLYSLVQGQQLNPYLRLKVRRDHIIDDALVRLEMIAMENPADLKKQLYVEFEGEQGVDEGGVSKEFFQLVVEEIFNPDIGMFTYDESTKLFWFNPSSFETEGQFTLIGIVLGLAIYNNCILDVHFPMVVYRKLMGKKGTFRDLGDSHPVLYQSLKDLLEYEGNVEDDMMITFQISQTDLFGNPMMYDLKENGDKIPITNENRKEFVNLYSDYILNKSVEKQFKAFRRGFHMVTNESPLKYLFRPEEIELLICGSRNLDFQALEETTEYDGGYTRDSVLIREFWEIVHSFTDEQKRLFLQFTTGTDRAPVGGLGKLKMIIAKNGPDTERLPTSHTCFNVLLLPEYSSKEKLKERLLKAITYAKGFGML
UniProt Q7L5N1: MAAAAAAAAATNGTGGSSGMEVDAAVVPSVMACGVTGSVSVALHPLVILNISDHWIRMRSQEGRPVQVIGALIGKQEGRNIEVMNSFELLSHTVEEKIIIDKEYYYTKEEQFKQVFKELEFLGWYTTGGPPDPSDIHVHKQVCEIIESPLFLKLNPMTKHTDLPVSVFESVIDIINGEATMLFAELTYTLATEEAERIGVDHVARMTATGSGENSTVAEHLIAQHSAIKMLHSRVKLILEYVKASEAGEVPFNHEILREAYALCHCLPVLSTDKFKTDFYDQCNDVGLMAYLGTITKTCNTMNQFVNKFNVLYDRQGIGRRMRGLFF

Target: E6-associated protein (E6AP/UBE3A), endogenous (human (endogenous in HeLa)) (UniProt Q05086)
Experiment: co-IP; HeLa cell lysates immunoprecipitated with anti-E6AP antibody or mouse IgG, immunoblotted for CSN6; both proteins endogenous; 1 mg protein, overnight, Protein A or G beads

binding: binds
Substance: COP9 signalosome subunit 6 (CSN6), endogenous (from UniProt Q7L5N1 1-327)
